The test system of this data set is FKBP^92-380. Nature of the data set: X-ray crystallography, peptides bound to the TPR domain of FKBP^92-380. Particulars: crystal structure at 2.18 Å (PDB 5MGX); peptide from proteolytic cleavage of yHsp90^546-709 during crystallization; four molecules of FKBP^92-380 in the unit cell.
As to ATEMEEVD, the “peptide bound to the TPR domain in the crystal” value is “bound peptides found”.
Regarding EMEE, the “peptide bound to the TPR domain in the crystal” value is reported as “bound peptides found”.
The same measure for EMEEVD: “bound peptides found”.

Values taken from PMC5344419, “The structure of FKBP38 in complex with the MEEVD tetratricopeptide binding-motif of Hsp90” (PLoS ONE, 2017).
